Residue numbers refer to the chain shown, from its start. No constants are given. Whether binding was seen depends on the method and setting. In cells and extracts the contact can be indirect. Some binding calls cover weakened binding; strength is not graded here. Sequences can lack the tags named with a protein.
How the values were obtained:
Experiment in all cases: co-IP
[1] = target: T1, GFP fusion of the entire WDR41 7CD loop sequence (354-393) (UniProt Q9HAD4)
T1 sequence: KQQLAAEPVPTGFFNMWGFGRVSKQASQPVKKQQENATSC

[2] = target: T2, GFP-WDR41-PIP (WDR41 PQLC2-interacting peptide, 364-373, as a GFP fusion)
T2 sequence: TGFFNMWGFG

WDR41-HA F367A = target: T3, WDR41-HA F367A (UniProt Q9HAD4)
T3 sequence: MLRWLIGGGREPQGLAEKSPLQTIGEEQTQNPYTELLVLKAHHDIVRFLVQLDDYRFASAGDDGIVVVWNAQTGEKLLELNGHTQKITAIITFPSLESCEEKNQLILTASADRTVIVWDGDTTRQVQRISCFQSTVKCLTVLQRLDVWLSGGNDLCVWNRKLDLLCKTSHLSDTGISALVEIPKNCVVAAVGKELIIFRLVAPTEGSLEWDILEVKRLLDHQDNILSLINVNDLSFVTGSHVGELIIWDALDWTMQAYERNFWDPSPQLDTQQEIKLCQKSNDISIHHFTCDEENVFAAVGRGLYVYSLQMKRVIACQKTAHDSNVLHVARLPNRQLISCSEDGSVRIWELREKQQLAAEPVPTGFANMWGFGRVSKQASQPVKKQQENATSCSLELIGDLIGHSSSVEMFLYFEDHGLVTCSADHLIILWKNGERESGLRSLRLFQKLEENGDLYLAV

WDR41-HA G365A = target: T4, WDR41-HA G365A (UniProt Q9HAD4)
T4 sequence: T3 sequence with G365A, A367F

WDR41-HA G365V = target: T5, WDR41-HA G365V (UniProt Q9HAD4)
T5 sequence: T3 sequence with G365V, A367F

WDR41-HA N368A = target: T6, WDR41-HA N368A (UniProt Q9HAD4)
T6 sequence: T3 sequence with A367F, N368A

[3] = target: T7, WDR41-HA with deletion of the first linker sub-region of the 7CD loop (354-360) (UniProt Q9HAD4)
T7 sequence: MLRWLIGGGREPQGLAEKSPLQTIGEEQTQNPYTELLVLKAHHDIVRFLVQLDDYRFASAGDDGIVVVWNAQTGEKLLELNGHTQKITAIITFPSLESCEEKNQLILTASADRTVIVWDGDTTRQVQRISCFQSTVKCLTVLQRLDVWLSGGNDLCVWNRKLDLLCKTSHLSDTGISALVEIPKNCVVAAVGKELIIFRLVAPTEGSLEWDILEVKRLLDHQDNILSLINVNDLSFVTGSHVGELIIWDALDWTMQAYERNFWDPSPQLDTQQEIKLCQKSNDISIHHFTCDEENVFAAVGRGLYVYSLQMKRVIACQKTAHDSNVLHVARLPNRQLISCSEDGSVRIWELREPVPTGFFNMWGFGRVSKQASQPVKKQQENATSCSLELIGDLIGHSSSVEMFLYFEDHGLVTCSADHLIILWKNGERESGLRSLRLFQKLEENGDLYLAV

[4] = target: T8, WDR41-HA with glycine 371 substituted by valine (UniProt Q9HAD4)
T8 sequence: T3 sequence with A367F, G371V

B1: SMCR8 (protein, UniProt Q8TEV9 1-937)
chain: MISAPDVVAFTKEEEYEEEPYNEPALPEEYSVPLFPFASQGANPWSKLSGAKFSRDFILISEFSEQVGPQPLLTIPNDTKVFGTFDLNYFSLRIMSVDYQASFVGHPPGSAYPKLNFVEDSKVVLGDSKEGAFAYVHHLTLYDLEARGFVRPFCMAYISADQHKIMQQFQELSAEFSRASECLKTGNRKAFAGELEKKLKDLDYTRTVLHTETEIQKKANDKGFYSSQAIEKANELASVEKSIIEHQDLLKQIRSYPHRKLKGHDLCPGEMEHIQDQASQASTTSNPDESADTDLYTCRPAYTPKLIKAKSTKCFDKKLKTLEELCDTEYFTQTLAQLSHIEHMFRGDLCYLLTSQIDRALLKQQHITNFLFEDFVEVDDRMVEKQESIPSKPSQDRPPSSSLEECPIPKVLISVGSYKSSVESVLIKMEQELGDEEYKEVEVTELSSFDPQENLDYLDMDMKGSISSGESIEVLGTEKSTSVLSKSDSQASLTVPLSPQVVRSKAVSHRTISEDSIEVLSTCPSEALIPDDFKASYPSAINEEESYPDGNEGAIRFQASISPPELGETEEGSIENTPSQIDSSCCIGKESDGQLVLPSTPAHTHSDEDGVVSSPPQRHRQKDQGFRVDFSVENANPSSRDNSCEGFPAYELDPSHLLASRDISKTSLDNYSDTTSYVSSVASTSSDRIPSAYPAGLSSDRHKKRAGQNALKFIRQYPFAHPAIYSLLSGRTLVVLGEDEAIVRKLVTALAIFVPSYGCYAKPVKHWASSPLHIMDFQKWKLIGLQRVASPAGAGTLHALSRYSRYTSILDLDNKTLRCPLYRGTLVPRLADHRTQIKRGSTYYLHVQSMLTQLCSKAFLYTFCHHLHLPTHDKETEELVASRQMSFLKLTLGLVNEDVRVVQYLAELLKLHYMQESPGTSHPMLRFDYVPSFLYKI
- binding [1]: no binding
- binding [2]: no binding
- binding (WDR41-HA F367A): binds
- binding (WDR41-HA G365A): binds
- binding (WDR41-HA G365V): binds
- binding (WDR41-HA N368A): binds
- binding [3]: binds
- binding [4]: binds

B2: PQLC2-FLAG wild type (protein, UniProt Q6ZP29 1-291)
chain: MVWKKLGSRNFSSCPSGSIQWIWDVLGECAQDGWDEASVGLGLISILCFAASTFPQFIKAYKTGNMDQALSLWFLLGWIGGDSCNLIGSFLADQLPLQTYTAVYYVLADLVMLTLYFYYKFRTRPSLLSAPINSVLLFLMGMACATPLLSAAGPVAAPREAFRGRALLSVESGSKPFTRQEVIGFVIGSISSVLYLLSRLPQIRTNFLRKSTQGISYSLFALVMLGNTLYGLSVLLKNPEEGQSEGSYLLHHLPWLVGSLGVLLLDTIISIQFLVYRRSTAASELEPLLPS
- binding [1]: binds
- binding [2]: binds
- binding (WDR41-HA F367A): no binding
- binding (WDR41-HA G365A): binds
- binding (WDR41-HA G365V): no binding
- binding (WDR41-HA N368A): no binding
- binding [3]: no binding
- binding [4]: binds

Reference: paper doi:10.1101/2020.07.15.204800 (bioRxiv, 2020)
